Reference: PMC6981127
Results are given in words; binding and its absence hold for the method and conditions named. In cells and extracts the contact can be indirect.

Amino acid sequences for entries named in this document (tags omitted).
UniProt P51943: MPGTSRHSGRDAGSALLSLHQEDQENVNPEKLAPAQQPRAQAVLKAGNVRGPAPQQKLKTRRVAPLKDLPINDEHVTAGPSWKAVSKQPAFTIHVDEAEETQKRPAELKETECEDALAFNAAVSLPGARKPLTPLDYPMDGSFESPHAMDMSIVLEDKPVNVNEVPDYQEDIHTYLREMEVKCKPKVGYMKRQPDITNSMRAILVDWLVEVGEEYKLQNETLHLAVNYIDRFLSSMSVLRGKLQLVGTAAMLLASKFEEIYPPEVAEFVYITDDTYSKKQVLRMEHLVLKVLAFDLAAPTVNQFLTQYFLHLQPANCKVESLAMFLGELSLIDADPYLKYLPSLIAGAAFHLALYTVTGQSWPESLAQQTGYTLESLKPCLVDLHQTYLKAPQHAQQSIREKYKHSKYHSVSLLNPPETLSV

Target: T1, PDZ domain-containing RING-finger protein 3 (UniProt Q69ZS0)
T1 sequence: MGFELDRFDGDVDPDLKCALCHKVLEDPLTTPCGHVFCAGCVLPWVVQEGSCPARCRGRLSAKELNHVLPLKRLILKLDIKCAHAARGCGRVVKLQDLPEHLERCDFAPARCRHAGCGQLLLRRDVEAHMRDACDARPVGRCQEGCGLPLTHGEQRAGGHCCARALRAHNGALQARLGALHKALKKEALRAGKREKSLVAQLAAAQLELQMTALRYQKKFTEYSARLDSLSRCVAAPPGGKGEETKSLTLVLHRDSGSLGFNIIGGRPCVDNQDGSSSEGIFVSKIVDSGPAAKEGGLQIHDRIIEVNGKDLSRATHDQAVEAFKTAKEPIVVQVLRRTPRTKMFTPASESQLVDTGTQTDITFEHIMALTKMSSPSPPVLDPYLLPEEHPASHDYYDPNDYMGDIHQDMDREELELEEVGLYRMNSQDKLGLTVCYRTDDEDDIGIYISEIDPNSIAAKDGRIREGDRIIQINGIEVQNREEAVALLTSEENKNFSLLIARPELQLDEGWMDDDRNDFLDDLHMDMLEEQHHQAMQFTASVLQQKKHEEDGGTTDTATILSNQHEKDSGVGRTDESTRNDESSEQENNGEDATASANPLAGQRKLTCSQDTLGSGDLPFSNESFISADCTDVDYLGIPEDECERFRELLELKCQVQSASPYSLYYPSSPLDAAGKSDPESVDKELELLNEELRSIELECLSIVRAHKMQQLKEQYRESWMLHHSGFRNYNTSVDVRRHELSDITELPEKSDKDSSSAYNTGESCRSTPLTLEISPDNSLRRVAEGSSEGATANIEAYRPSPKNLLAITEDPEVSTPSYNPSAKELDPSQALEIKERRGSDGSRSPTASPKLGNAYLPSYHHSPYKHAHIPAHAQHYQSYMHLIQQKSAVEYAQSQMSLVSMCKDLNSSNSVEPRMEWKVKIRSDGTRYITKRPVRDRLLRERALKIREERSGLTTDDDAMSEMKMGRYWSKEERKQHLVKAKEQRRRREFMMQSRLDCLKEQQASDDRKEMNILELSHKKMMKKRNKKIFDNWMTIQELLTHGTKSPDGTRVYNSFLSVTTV
Experiment: co-IP; immunoprecipitation; cells, antibodies and conditions not told in the main text (Supplementary Fig. S2)

binding: no binding
Substance: cyclin A2 (from UniProt P51943 1-422)
